Assay: Acute seven-day toxicity (LD50), single oral application
Design: species or system mice (white NMRI)
Conditions: mouse, in vivo, p.o., mice
Method: The acute seven-day toxicity is determined by a single application per os and intraperitoneally to white fasting NMRI mice. The computation of the LD50 values was effected via EDV by a probit analysis (Cavalli-Sforza, publisher Gustav Fischer, 1964, Grundbegriffe der Biometrie).

Question: With CN1C(=O)CN=C(c2ccccc2)c2cc(Cl)ccc21 [Standard II, 7-chloro-1-methyl-5-phenyl-1,3-dihydro-2H-1,4-benzodiazepin-2-one, reference compound] as the compound, how does the LD50 at 168 h read?
Answer: 887 mg/kg

— patent US4244869A, “Benzodiazepine derivatives and process of making them” (Kali-Chemie A.G., priority 1972, dated 1981)
